Source: paper PMC3673989, “Effect of Single Amino Acid Substitution Observed in Cancer on Pim-1 Kinase Thermodynamic Stability and Structure” (PLoS ONE, 2013)

Sequences of proteins named here, by UniProt entry; tags and fusion partners are left off.
UniProt P11309, whole entry E135K: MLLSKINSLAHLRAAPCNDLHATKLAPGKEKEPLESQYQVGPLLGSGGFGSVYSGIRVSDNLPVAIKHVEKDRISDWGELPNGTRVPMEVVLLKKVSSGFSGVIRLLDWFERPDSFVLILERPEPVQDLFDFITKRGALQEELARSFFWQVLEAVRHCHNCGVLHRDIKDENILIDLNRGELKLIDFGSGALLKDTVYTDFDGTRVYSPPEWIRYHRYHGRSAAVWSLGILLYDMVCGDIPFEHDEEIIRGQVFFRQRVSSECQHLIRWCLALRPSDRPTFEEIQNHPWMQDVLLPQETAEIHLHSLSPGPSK
UniProt P11309, whole entry: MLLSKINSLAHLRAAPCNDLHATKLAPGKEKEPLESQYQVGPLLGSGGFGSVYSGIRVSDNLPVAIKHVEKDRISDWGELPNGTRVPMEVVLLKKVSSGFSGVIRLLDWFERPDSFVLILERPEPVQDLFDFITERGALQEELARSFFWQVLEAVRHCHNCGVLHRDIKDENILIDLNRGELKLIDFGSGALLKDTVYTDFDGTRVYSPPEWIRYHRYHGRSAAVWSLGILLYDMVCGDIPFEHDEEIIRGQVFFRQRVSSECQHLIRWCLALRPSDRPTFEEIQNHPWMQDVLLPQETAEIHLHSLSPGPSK
UniProt P11309, whole entry E142D: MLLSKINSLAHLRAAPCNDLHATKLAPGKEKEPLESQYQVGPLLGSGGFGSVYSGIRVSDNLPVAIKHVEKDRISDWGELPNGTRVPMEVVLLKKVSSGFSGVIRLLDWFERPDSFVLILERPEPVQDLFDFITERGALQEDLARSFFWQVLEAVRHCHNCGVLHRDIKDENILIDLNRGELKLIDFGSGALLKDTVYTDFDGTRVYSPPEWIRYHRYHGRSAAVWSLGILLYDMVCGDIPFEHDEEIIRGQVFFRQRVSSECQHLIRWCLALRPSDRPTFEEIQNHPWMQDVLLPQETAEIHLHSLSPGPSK
UniProt P11309, whole entry Y53H: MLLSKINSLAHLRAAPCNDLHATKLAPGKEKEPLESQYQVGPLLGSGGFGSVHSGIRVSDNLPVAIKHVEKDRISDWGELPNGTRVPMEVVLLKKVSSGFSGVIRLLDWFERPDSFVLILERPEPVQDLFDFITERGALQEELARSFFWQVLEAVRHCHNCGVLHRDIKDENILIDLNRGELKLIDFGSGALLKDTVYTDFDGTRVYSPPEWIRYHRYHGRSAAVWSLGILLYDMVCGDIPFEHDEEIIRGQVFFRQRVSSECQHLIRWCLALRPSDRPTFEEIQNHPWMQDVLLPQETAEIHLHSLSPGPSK
UniProt P11309, whole entry E124Q: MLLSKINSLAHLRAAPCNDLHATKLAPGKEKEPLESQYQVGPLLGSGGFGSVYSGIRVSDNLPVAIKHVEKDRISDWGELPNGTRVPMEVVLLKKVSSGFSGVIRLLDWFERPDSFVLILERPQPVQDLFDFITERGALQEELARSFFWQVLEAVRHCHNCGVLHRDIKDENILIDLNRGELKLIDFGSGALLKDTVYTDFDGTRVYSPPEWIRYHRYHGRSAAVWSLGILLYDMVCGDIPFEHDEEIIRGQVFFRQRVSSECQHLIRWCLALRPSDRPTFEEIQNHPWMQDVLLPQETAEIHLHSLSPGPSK

Legend:
Assay in all cases: Inhibitor binding by temperature shift assay (SYPRO Orange)
Pim-1 E135K = molecular target: T1, Pim-1 E135K (Homo sapiens, UniProt P11309, E135K); details: Pim-1 E135K 2 µM, compound 10 µM
T1 construct: hexahistidine tag (TEV-cleavable) (cleaved yes); made in house; host or cells: E. coli BL21(DE3)
Method: (§1) Thermal melting experiments were carried out using an Mx3005p Real Time PCR machine (Stratagene). Proteins were buffered in 10 mM HEPES pH 7.5, 500 mM NaCl and assayed in a 96-well plate at a final concentration of 2 µM in 20 µl volume. Compounds were added at a final concentration of 10 µM. SYPRO Orange (Molecular Probes) was added as a fluorescence probe at a dilution of 1∶1000. […] Data was analysed as previously described.

Pim-1 wild type = molecular target: T2, Pim-1 wild type (Homo sapiens, UniProt P11309); details: Pim-1 wild type 2 µM, compound 10 µM
T2 construct: hexahistidine tag (TEV-cleavable) (cleaved yes); made in house; host or cells: E. coli BL21(DE3)
Method: as §1

Pim-1 E142D = molecular target: T3, Pim-1 E142D (Homo sapiens, UniProt P11309, E142D); details: Pim-1 E142D 2 µM, compound 10 µM
T3 construct: hexahistidine tag (TEV-cleavable) (cleaved yes); made in house; host or cells: E. coli BL21(DE3)
Method: as §1

Pim-1 Y53H = molecular target: T4, Pim-1 Y53H (Homo sapiens, UniProt P11309, Y53H); details: Pim-1 Y53H 2 µM, compound 10 µM
T4 construct: hexahistidine tag (TEV-cleavable) (cleaved yes); made in house; host or cells: E. coli BL21(DE3)
Method: as §1

Pim-1 E124Q = molecular target: T5, Pim-1 E124Q (Homo sapiens, UniProt P11309, E124Q); details: Pim-1 E124Q 2 µM, compound 10 µM
T5 construct: hexahistidine tag (TEV-cleavable) (cleaved yes); made in house; host or cells: E. coli BL21(DE3)
Method: as §1

ΔTm (Pim-1 E135K): 6.7 K
ΔTm (Pim-1 wild type): 6.3 K
ΔTm (Pim-1 E142D): 6.9 K
ΔTm (Pim-1 Y53H): 6.0 K
ΔTm (Pim-1 E124Q): 6.0 K
SMILES: CCC(CO)Nc1ccc2ncc(-c3cccc(Cl)c3)n2n1 (centres unmarked) [K00488]
